Experimental findings from US20250281622A1 are described below.

For this assay, the target named is human CD71 (membrane protein expressed on cells) (human) (UniProt P02786). In words: Membrane Proteome Array, flow cytometry on QT6 cells expressing human membrane proteins. A general note: A flow cytometer gives signals particle by particle.

Results are given in words; binding and its absence hold for the method and conditions named. Some results given as binding are weak or reduced against the parent protein; the word gives no strength.

B1: ABX1198 (SEQ ID NO: 509) (designed binder)
chain: MLPAPKNLVVSRVTEDSARLSWTAPDAAFDSFYIAYAEPRPDGEAILLQVPGSCRSYDLTGLKPGTEYSVLIHGVKGGLLSSPLTAIFTT
With B1, the binding result is given as “binds”.
